Results: PMC8545988
These are yes or no findings as the source states them, for the method shown. Some entries that bind do so weakly or less than the wild type. Tags and fused reporters may be left off the sequences shown.

Target: T1, BD-SPY (SPINDLY in pGBKT7) (Arabidopsis thaliana) (UniProt Q96301)
T1 sequence: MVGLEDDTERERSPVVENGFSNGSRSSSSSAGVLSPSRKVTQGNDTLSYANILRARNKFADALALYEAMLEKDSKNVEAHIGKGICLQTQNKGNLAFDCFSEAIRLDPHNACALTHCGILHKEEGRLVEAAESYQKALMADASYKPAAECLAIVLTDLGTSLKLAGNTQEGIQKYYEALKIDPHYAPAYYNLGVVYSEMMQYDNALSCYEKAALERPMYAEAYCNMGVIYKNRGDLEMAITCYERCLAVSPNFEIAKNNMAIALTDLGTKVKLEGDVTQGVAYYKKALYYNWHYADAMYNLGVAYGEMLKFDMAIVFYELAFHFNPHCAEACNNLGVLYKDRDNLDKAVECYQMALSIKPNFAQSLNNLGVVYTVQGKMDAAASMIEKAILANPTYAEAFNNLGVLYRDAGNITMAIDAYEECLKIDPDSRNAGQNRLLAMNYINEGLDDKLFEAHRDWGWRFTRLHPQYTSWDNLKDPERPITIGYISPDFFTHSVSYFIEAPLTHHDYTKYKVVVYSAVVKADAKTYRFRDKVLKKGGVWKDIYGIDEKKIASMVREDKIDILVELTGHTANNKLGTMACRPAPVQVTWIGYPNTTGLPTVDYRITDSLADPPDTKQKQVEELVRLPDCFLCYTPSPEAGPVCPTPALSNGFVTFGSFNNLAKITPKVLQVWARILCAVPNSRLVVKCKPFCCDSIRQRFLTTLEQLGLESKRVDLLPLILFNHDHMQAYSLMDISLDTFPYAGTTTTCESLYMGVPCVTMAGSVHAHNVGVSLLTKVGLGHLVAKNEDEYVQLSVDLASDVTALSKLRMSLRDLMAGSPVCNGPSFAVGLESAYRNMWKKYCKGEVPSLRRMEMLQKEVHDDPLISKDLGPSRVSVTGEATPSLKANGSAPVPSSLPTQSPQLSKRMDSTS
Assay: two-hybrid; one-to-one test: pGBKT7 baits with pGADT7-CPN20; growth on SD/-Trp/-Leu/-His/AbA/X-alpha-Gal or SD/-Trp/-Leu/-His/-Ade/AbA/X-alpha-Gal; pictures after 4 days on SD-3/X/A

B1: AD-CPN20 (full-length CPN20 in pGADT7) (protein, UniProt O65282 1-253)
chain: MAATQLTASPVTMSARSLASLDGLRASSVKFSSLKPGTLRQSQFRRLVVKAASVVAPKYTSIKPLGDRVLVKIKEAEEKTLGGILLPSTAQSKPQGGEVVAVGEGRTIGKNKIDITVPTGAQIIYSKYAGTEVEFNDVKHLILKEDDIVGILETEDIKDLKPLNDRVFIKVAEAEEKTAGGLLLTETTKEKPSIGTVIAVGPGSLDEEGKITPLPVSTGSTVLYSKYAGNDFKGKDGSNYIALRASDVMAILS
- binding: binds
